PubChem BioAssay AID1259425, University of Nebraska Medical Center – 2018
This is one part, drawn at random, of about 14,000 reagents tested. Not all columns of the deposit are shown. Not stated in the record: the time to read-out.

Purpose: 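Compare each knockdown with KSR1 silencing using changes in marker transcripts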 (primary screen)
Cell system: HCT116 human colon cancer cells
Reagents: siRNA pool against human genes, 50 nM siRNA
Detection: 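mRNA of six signature genes measured together by branched-DNA assay after 50 nM siRNA pool, blank removed, divided by geometric mean of two housekeeping genes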
Reading the numbers: BNIP3L mRNA: higher = more BNIP3L transcript after knockdown; NDRG1 mRNA: higher = more NDRG1 transcript after knockdown

ELMOD3 — BNIP3L mRNA, set 1 = 0.116; NDRG1 mRNA, set 1 = 0.56
GID8 — BNIP3L mRNA, set 1 = 0.0699; NDRG1 mRNA, set 1 = 0.132
ADO — BNIP3L mRNA, set 1 = 0.129; NDRG1 mRNA, set 1 = 0.124
MAP3K12 — BNIP3L mRNA, set 1 = 0.108; NDRG1 mRNA, set 1 = 0.154
NARS2 — BNIP3L mRNA, set 1 = 0.0651; NDRG1 mRNA, set 1 = 0.187
RPS17 — BNIP3L mRNA, set 1 = 0.078; NDRG1 mRNA, set 1 = 0.115
ZNF514 — BNIP3L mRNA, set 1 = 0.119; NDRG1 mRNA, set 1 = 0.0843
LRRC27 — BNIP3L mRNA, set 1 = 0.105; NDRG1 mRNA, set 1 = 0.139
CCDC198 — BNIP3L mRNA, set 1 = 0.141; NDRG1 mRNA, set 1 = 0.0966
NRIP2 — BNIP3L mRNA, set 1 = 0.177; NDRG1 mRNA, set 1 = 0.138
CLOCK — BNIP3L mRNA, set 1 = 0.0656; NDRG1 mRNA, set 1 = 0.365
IDH3B — BNIP3L mRNA, set 1 = 0.0468; NDRG1 mRNA, set 1 = 0.218
SLC12A4 — BNIP3L mRNA, set 1 = 0.208; NDRG1 mRNA, set 1 = 0.201
KLRA1P — BNIP3L mRNA, set 1 = 0.0962; NDRG1 mRNA, set 1 = 0.0603
DACH1 — BNIP3L mRNA, set 1 = 0.0785; NDRG1 mRNA, set 1 = 0.15
TSPAN4 — BNIP3L mRNA, set 1 = 0.0211; NDRG1 mRNA, set 1 = 0.455
CDK5RAP1 — BNIP3L mRNA, set 1 = 0.167; NDRG1 mRNA, set 1 = 0.159
ERO1A — BNIP3L mRNA, set 1 = 0.0869; NDRG1 mRNA, set 1 = 0.109
EIF3L — BNIP3L mRNA, set 1 = 0.216; NDRG1 mRNA, set 1 = 2.74
PILRA — BNIP3L mRNA, set 1 = 0.09; NDRG1 mRNA, set 1 = 0.0717
ZNF292 — BNIP3L mRNA, set 1 = 0.091; NDRG1 mRNA, set 1 = 0.288
KRTAP1-1 — BNIP3L mRNA, set 1 = 0.108; NDRG1 mRNA, set 1 = 0.0482
TBX19 — BNIP3L mRNA, set 1 = 0.157; NDRG1 mRNA, set 1 = 0.113
ABLIM2 — BNIP3L mRNA, set 1 = 0.127; NDRG1 mRNA, set 1 = 0.23
RND2 — BNIP3L mRNA, set 1 = 0.0543; NDRG1 mRNA, set 1 = 0.26
SNAI2 — BNIP3L mRNA, set 1 = 0.0608; NDRG1 mRNA, set 1 = 0.0767
FTSJ1 — BNIP3L mRNA, set 1 = 0.127; NDRG1 mRNA, set 1 = 0.549
ITFG1 — BNIP3L mRNA, set 1 = 0.101; NDRG1 mRNA, set 1 = 0.4
ISYNA1 — BNIP3L mRNA, set 1 = 0.085; NDRG1 mRNA, set 1 = 0.595
CERS4 — BNIP3L mRNA, set 1 = 0.141; NDRG1 mRNA, set 1 = 0.239
SCN1B — BNIP3L mRNA, set 1 = 0.17; NDRG1 mRNA, set 1 = 0.236
MAX — BNIP3L mRNA, set 1 = 0.252; NDRG1 mRNA, set 1 = 0.26
SLC10A1 — BNIP3L mRNA, set 1 = 0.0482; NDRG1 mRNA, set 1 = 0.186
ANAPC7 — BNIP3L mRNA, set 1 = 0.0537; NDRG1 mRNA, set 1 = 0.205
VCPIP1 — BNIP3L mRNA, set 1 = 0.0584; NDRG1 mRNA, set 1 = 0.619
CHRNB4 — BNIP3L mRNA, set 1 = 0.0929; NDRG1 mRNA, set 1 = 0.234

Look-ups from the list:
For “BNIP3L mRNA, set 1”, RPS17 shows 0.078
Value for TBX19 under “BNIP3L mRNA, set 1”: 0.157
For “BNIP3L mRNA, set 1”, LRRC27 shows 0.105
Entry for CLOCK under “BNIP3L mRNA, set 1”: 0.0656
For “NDRG1 mRNA, set 1”, SNAI2 reads 0.0767
Under “NDRG1 mRNA, set 1”, DACH1 has 0.15
